Not every detail of the peptide structures is certain; ends, links or a residue may be inferred. Residues, ends and D or L forms follow the SMILES beside them. *: point of attachment. Doxorubicin(3'-N) = COc1cccc2c1C(=O)c1c(O)c3c(c(O)c1C2=O)C[C@@](O)(C(=O)CO)C[C@@H]3O[C@H]1C[C@H](N*)[C@H](O)[C@H](C)O1; Hexanoyl(6-maleimido) = O=C1C=CC(=O)N1CCCCCC(=O)*
How the values were obtained:
aspartic endopeptidase = target: T1, aspartic endopeptidase (Homo sapiens, UniProt Q99538); assay: Activation efficiency by aspartic endopeptidase (HPLC); assay type: biochemical; details: 1 mg/ml compound, enzyme 1 μmol/L, pH 6.0, 37° C., 2 hours; ratio of released product to original compound
T1 sequence (Q99538 18-323): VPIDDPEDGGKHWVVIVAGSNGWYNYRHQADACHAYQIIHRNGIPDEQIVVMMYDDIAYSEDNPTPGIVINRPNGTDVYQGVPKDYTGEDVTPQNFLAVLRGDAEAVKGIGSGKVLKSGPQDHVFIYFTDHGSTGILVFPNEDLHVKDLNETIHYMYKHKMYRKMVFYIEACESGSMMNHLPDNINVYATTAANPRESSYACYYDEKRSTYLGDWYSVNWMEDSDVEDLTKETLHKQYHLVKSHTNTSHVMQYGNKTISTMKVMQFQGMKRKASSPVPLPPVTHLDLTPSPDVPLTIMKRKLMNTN
Procedure: The sample compound and a portion of the control compound (herein, all of the control compounds can be synthesized by a method similar to that described in Examples 1-3) were uniformly diluted 10-fold to 1 mg/ml with the enzyme-digesting solution. In this experiment, 1 mg/ml of the sample compound was added to the aspartic endopeptidase (1 μmol/L, pH 6.0) at 37° C. for 2 hours. After the reaction, the enzyme digest was able to release the enzyme-digested product. The decrease in the compound and the increase in the product were examined by HPLC to compare the enzyme activation efficiency (the ratio of the product released by the enzyme cleavage to the original compound).

CT26 tumor cells = assay: CT26 immunotherapy model (Example 15); assay type: in vivo, mice
Procedure: 1) CT26 tumor cells were purchased from ATCC, and the cells were cultured using a 10% fetal bovine serum DMEM medium at 37° C., 5% CO2. The cells were passaged every 3 days and the cells were used within 15 generations.
2) Tumor production: 10^6 live CT26 tumor cells were injected subcutaneously into the back of tumor-immunized […], and treatment was started when the tumor grew to about 0.3-0.4 cm. The tumor size (mm^3) of the mice was recorded and compared with the solvent control group. The tumor inhibition rate on day 42 was calculated in the solvent control group.
3) Treatment process: IV injection is used, and the drug is used at a dose of ⅓ MTD once a week Immunosuppressive IV injection treatment once a week for a total of 6 weeks of treatment.
4) The cure rate of 10 in each group was counted. After 50 days, the cured mice and wild groups were inoculated […] to detect recurrence.

Q: What does the source list for `COc1cccc2c1C(=O)c1c(O)c3c(c(O)c1C2=O)C[C@@](O)(C(=O)CO)C[C@@H]3O[C@H]1C[C@H](NC(=O)[C@H](CC(C)C)NC(=O)[C@H](CC(N)=O)NC(=O)[C@H](C)NC(=O)[C@H](C)NC(=O)CCCCCN2C(=O)C=CC2=O)[C@H](O)[C@H](C)O1` [Compound C11, EMC-AANL-Adriamycin, reference compound] ({Hexanoyl(6-maleimido)}-AANL-{Doxorubicin(3'-N)})?
A: Activation efficiencies (%) (aspartic endopeptidase): 54.5%; Cure rate % (CT26 tumor cells; 10 in each group): 40%; Number of cures (CT26 tumor cells; 10 in each group): 4; Recurrence rate % (Week 7) (CT26 tumor cells; cured mice re-inoculated with CT26 cells after 50 days): 25%
